Paper PMC11772845
These are yes or no findings as the source states them, for the method shown. In cells and extracts the contact can be indirect. Binding calls can cover weak binding; strength is not graded here.

Amino acid sequences for entries named in this document (tags omitted). A change or cut given only in a name is not applied to a line headed by its entry.
UniProt P40098: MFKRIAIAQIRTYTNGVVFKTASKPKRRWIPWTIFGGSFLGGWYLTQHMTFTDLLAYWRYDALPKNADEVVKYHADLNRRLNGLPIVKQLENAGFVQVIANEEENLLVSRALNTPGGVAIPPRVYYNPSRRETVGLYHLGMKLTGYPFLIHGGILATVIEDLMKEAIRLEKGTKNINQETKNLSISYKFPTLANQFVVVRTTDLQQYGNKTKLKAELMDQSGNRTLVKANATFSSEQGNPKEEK
UniProt P38172: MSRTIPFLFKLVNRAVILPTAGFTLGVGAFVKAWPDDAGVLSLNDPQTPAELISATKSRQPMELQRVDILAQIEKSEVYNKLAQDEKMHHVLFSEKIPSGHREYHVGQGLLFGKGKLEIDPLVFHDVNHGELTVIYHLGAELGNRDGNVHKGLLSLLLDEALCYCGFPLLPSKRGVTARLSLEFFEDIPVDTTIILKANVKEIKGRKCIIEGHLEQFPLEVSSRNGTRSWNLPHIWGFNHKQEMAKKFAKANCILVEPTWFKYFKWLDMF

Columns and labels:
Cor1TAP (S. cerevisiae) = biological target: T1, Cor1TAP (S. cerevisiae) (UniProt P07256); assay: co-IP; protein A- or TAP-tagged bait captured on IgG-Sepharose from mitochondria solubilised in 1% digitonin (20 mM Tris-HCl pH 7.4, 50 mM NaCl, 0.1 mM EDTA, 10% glycerol), washed with 0.3% digitonin, eluted with TEV protease at 4 °C; eluates analysed by SDS-PAGE or BN-PAGE and western blot; untagged wild type as control; also done with rho-, mic10Δ (Mic60 bait), mar26Δ, rip1Δ and Mar26-overexpressing mitochondria
T1 sequence: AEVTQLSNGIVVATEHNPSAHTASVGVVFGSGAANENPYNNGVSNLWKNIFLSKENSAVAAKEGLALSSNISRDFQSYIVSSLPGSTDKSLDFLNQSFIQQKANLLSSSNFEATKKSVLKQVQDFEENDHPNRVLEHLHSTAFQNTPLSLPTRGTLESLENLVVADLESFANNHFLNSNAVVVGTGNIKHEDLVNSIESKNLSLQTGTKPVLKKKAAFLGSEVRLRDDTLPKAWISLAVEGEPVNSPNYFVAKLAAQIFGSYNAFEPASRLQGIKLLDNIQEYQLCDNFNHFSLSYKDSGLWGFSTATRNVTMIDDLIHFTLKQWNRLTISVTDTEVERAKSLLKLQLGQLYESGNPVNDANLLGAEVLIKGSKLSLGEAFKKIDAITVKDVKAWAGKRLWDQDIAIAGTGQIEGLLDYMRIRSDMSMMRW

[1] = biological target: T2, Mic60_(ProtA) (S. cerevisiae) (UniProt P36112); assay: as above
T2 sequence: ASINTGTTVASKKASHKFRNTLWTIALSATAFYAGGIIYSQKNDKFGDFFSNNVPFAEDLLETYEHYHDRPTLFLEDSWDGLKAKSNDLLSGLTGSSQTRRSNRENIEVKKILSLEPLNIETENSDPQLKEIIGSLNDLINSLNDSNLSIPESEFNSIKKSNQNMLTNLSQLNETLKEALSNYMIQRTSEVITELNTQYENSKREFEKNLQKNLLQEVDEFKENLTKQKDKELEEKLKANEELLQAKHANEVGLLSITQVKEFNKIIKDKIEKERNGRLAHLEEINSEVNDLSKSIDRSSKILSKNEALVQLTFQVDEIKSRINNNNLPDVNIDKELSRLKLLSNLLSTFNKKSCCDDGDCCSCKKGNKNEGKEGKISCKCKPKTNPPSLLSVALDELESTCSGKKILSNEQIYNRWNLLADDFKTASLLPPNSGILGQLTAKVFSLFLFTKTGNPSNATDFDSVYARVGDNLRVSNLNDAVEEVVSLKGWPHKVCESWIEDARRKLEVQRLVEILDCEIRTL

[2] = biological target: Mar26_(ProtA) (S. cerevisiae) (UniProt P40098); assay: as above
[3] = biological target: Mrx3_(ProtA) (S. cerevisiae) (UniProt P38172); assay: as above
[4] = biological target: Mar26_(ProtA) (S. cerevisiae) (UniProt P40098); assay: co-IP; [^35S]-labelled Rip1 imported into Mar26_(ProtA)bcs1Δ mitochondria (export of Rip1 from the matrix blocked), IgG chromatography, autoradiography
[5] = biological target: Mar26_(ProtA) (S. cerevisiae) (UniProt P40098); assay: co-IP; [^35S]-labelled precursor imported into isolated mitochondria that carry the protein A-tagged bait; then digitonin solubilisation, IgG chromatography, SDS-PAGE (or two-dimensional gel) and autoradiography

Molecule	binding [2]	binding [3]	further results
Mar26 (from UniProt P40098)	–	–	binding (Cor1TAP (S. cerevisiae)): binds; binding [1]: binds
Rip1 (protein, UniProt P08067 31-215) KSTYRTPNFDDVLKENNDADKGRSYAYFMVGAMGLLSSAGAKSTVETFISSMTATADVLAMAKVEVNLAAIPLGKNVVVKWQGKPVFIRHRTPHEIQEANSVDMSALKDPQTDADRVKDPQWLIMLGICTHLGCVPIGEAGDFGGWFCPCHGSHYDISGRIRKGPAPLNLEIPAYEFDGDKVIVG	binds	binds weakly	–
Cox2 (protein, UniProt P00410 16-251) DVPTPYACYFQDSATPNQEGILELHDNIMFYLLVILGLVSWMLYTIVMTYSKNPIAYKYIKHGQTIEVIWTIFPAVILLIIAFPSFILLYLCDEVISPAMTIKAIGYQWYWKYEYSDFINDSGETVEFESYVIPDELLEEGQLRLLDTDTSMVVPVDTHIRFVVTAADVIHDFAIPSLGIKVDATPGRLNQVSALIQREGVFYGACSELCGTGHANMPIKIEAVSLPKFLEWLNEQ	binds	binds weakly	–
Cyt1 (protein, UniProt P07143 62-309) MTAAEHGLHAPAYAWSHNGPFETFDHASIRRGYQVYREVCAACHSLDRVAWRTLVGVSHTNEEVRNMAEEFEYDDEPDEQGNPKKRPGKLSDYIPGPYPNEQAARAANQGALPPDLSLIVKARHGGCDYIFSLLTGYPDEPPAGVALPPGSNYNPYFPGGSIAMARVLFDDMVEYEDGTPATTSQMAKDVTTFLNWCAEPEHDERKRLGLKTVIILSSLYLLSIWVKKFKWAGIKTRKFVFNPPKPRK	–	binds weakly	–
Radiolabeled Rip1 (protein, UniProt P08067 1-215, [^35S]methionine label) MLGIRSSVKTCFKPMSLTSKRLISQSLLASKSTYRTPNFDDVLKENNDADKGRSYAYFMVGAMGLLSSAGAKSTVETFISSMTATADVLAMAKVEVNLAAIPLGKNVVVKWQGKPVFIRHRTPHEIQEANSVDMSALKDPQTDADRVKDPQWLIMLGICTHLGCVPIGEAGDFGGWFCPCHGSHYDISGRIRKGPAPLNLEIPAYEFDGDKVIVG	–	–	binding [4]: binds weakly; binding [5]: binds
